PubChem BioAssay AID1259308 | NCATS – 2017

Aim: 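Genes whose loss raises luciferase production in HEK293 cells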 (primary screen)
Cell system: human HEK293 embryonic kidney cells stably expressing firefly luciferase (HEK-CMV-Luc2-Hygro)
Reagent: single siRNA against human genes, 0.8 pmol siRNA per well
Time to read-out: 72 h
Read-out: 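Luciferase light (ONE-Glo) measured on one replicate plate set and viability (CellTiter-Glo) on the other, scaled to a negative control siRNA, with robust z-scores and luciferase per cell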
Scale: total luciferase, z-score and total luciferase, % of control: higher = more reporter protein produced; luciferase per cell, z-score: higher = more reporter output per viable cell; viable cells, % of control: higher = more viable cells
Hit rule: 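An siRNA counts as active if its total luciferase robust z-score exceeds 3; genes with two or more such siRNAs out of three were retested with fresh siRNAs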
Calls: active = raised luciferase; inactive = no rise
The deposit covers about 59,000 reagents; shown is a random part of them. About 1,510 of them (2.6%) were called active. 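Calls use total luciferase alone and ignore viability, so some active siRNAs may act by altering cell number.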 Unmarked entries are inactive.

| gene knocked down | PubChem SID | total luciferase, z-score | total luciferase, % of control | luciferase per cell, z-score | viable cells, % of control |
| --- | --- | --- | --- | --- | --- |
| KRTAP4-7 (keratin associated protein 4-7) | SID160753158 | 2.22 | 126 | 1.37 | 98.3 |
| KRTAP4-7 (keratin associated protein 4-7) | SID160753159 | -0.377 | 74.4 | -0.947 | 107 |
| KRTAP4-7 (keratin associated protein 4-7) | SID160753160 | -0.0603 | 80.7 | -0.141 | 93.6 |
| HCFC1 (host cell factor C1) | SID160774873 | -0.638 | 69.2 | 0.991 | 59.6 |
| HCFC1 (host cell factor C1) | SID160774874 | -0.253 | 76.9 | 0.124 | 83.1 |
| HCFC1 (host cell factor C1) | SID160774875 | 0.824 | 98.3 | 1.81 | 68.2 |
| GRPEL1 (GrpE like 1, mitochondrial) | SID160750315 | 0.323 | 88.3 | 0.731 | 81.4 |
| GRPEL1 (GrpE like 1, mitochondrial) | SID160750316 | 0.169 | 85.2 | 0.0613 | 93.7 |
| GRPEL1 (GrpE like 1, mitochondrial) | SID160750317 | -0.0326 | 81.2 | 0.722 | 75.1 |
| NMRK2 (nicotinamide riboside kinase 2) | SID160724367 | -0.0299 | 81.3 | -0.508 | 104 |
| NMRK2 (nicotinamide riboside kinase 2) | SID160738555 | -0.597 | 70 | 0.369 | 71 |
| NMRK2 (nicotinamide riboside kinase 2) | SID160738556 | 0.094 | 83.8 | 0.059 | 92.2 |
| CHRNA7 (cholinergic receptor nicotinic alpha 7 subunit) | SID160743311 | -1.2 | 58 | 0.67 | 54.3 |
| CHRNA7 (cholinergic receptor nicotinic alpha 7 subunit) | SID160743322 | -1.34 | 55.1 | -1.45 | 90.2 |
| CHRNA7 (cholinergic receptor nicotinic alpha 7 subunit) | SID160743333 | 0.938 | 101 | 0.835 | 90.2 |
| RFC5 (replication factor C subunit 5) | SID160715827 | 0.0415 | 82.7 | -0.143 | 96 |
| RFC5 (replication factor C subunit 5) | SID160715828 | -1.04 | 61.2 | -0.862 | 85.9 |
| RFC5 (replication factor C subunit 5) | SID160715829 | -0.58 | 70.4 | -0.0904 | 80.5 |
| HSP90B1 (heat shock protein 90 beta family member 1) | SID160718315 | -0.0281 | 81.3 | 1.96 | 54.2 |
| HSP90B1 (heat shock protein 90 beta family member 1) | SID160718316 | -1.35 | 55 | -1.44 | 89.8 |
| HSP90B1 (heat shock protein 90 beta family member 1) | SID160718317 | 2.33 | 128 | 2.43 | 75.7 |
| HAVCR2 (hepatitis A virus cellular receptor 2) | SID160732039 | 1.55 | 113 | 2.22 | 70.3 |
| HAVCR2 (hepatitis A virus cellular receptor 2) | SID160752811 | -0.0857 | 80.2 | -0.722 | 108 |
| HAVCR2 (hepatitis A virus cellular receptor 2) | SID160752812 | -1.37 | 54.7 | -1.89 | 101 |
| CRIP3 (cysteine rich protein 3) | SID160725341 | 0.423 | 90.3 | 0.0154 | 100 |
| CRIP3 (cysteine rich protein 3) | SID160767226 | 0.631 | 94.4 | 0.0895 | 103 |
| CRIP3 (cysteine rich protein 3) | SID160767227 | -1.16 | 58.9 | -1.34 | 93.7 |
| ATF4 (activating transcription factor 4) | SID160721101 | -1.82 | 45.7 | -1.06 | 67.4 |
| ATF4 (activating transcription factor 4) | SID160721110 | -2.26 | 36.9 | -2.32 | 75.8 |
| ATF4 (activating transcription factor 4) | SID160721120 | -1.56 | 50.9 | -0.768 | 69.6 |
| KRT35 (keratin 35) | SID160776446 | 0.396 | 89.8 | -0.309 | 109 |
| KRT35 (keratin 35) | SID160776447 | -1.43 | 53.4 | -1.44 | 87.1 |
| KRT35 (keratin 35) | SID160776448 | -3.06 | 21 | -2.87 | 50 |
| PSG4 (pregnancy specific beta-1-glycoprotein 4) | SID160715150 | -1.41 | 53.9 | -0.945 | 77.2 |
| PSG4 (pregnancy specific beta-1-glycoprotein 4) | SID160715151 | 1.01 | 102 | 1.25 | 82.1 |
| PSG4 (pregnancy specific beta-1-glycoprotein 4) | SID160733647 | 0.955 | 101 | 1.04 | 85.6 |
| DHDDS (dehydrodolichyl diphosphate synthase subunit) | SID160749827 | 0.0169 | 82.2 | -0.577 | 107 |
| DHDDS (dehydrodolichyl diphosphate synthase subunit) | SID160749828 | 0.145 | 84.8 | -0.73 | 115 |
| DHDDS (dehydrodolichyl diphosphate synthase subunit) | SID160749829 | 0.872 | 99.2 | 0.166 | 106 |
| CREBRF (CREB3 regulatory factor) | SID160759313 | -0.863 | 64.7 | 0.326 | 66.4 |
| CREBRF (CREB3 regulatory factor) | SID160759314 | -0.641 | 69.1 | -0.0155 | 77.6 |
| CREBRF (CREB3 regulatory factor) | SID160759315 | 0.0939 | 83.8 | -0.0324 | 94.4 |
| SLC6A17 | SID160765952 | 0.379 | 89.4 | 0.242 | 93.7 |
| SLC6A17 | SID160765953 | 0.102 | 83.9 | -0.0399 | 94.8 |
| SLC6A17 | SID160765954 | 0.0695 | 83.3 | 0.0943 | 90.8 |
| TMPRSS11A (transmembrane serine protease 11A) | SID160764335 | 0.535 | 92.5 | -0.214 | 109 |
| TMPRSS11A (transmembrane serine protease 11A) | SID160764336 | 0.494 | 91.7 | -0.0497 | 104 |
| TMPRSS11A (transmembrane serine protease 11A) | SID160764337 | -0.518 | 71.6 | -0.656 | 95.1 |
| CST7 (cystatin F) | SID160720251 | 0.0106 | 82.1 | -0.546 | 106 |
| CST7 (cystatin F) | SID160720252 | -0.123 | 79.4 | -0.0678 | 90.4 |
| CST7 (cystatin F) | SID160720254 | 0.818 | 98.2 | -0.144 | 114 |
| CCDC34 (coiled-coil domain containing 34) | SID160735179 | -2.13 | 39.5 | -1.53 | 66.2 |
| CCDC34 (coiled-coil domain containing 34) | SID160753884 | 0.83 | 98.4 | 0.0661 | 108 |
| CCDC34 (coiled-coil domain containing 34) | SID160753885 | 0.2 | 85.9 | 0.428 | 85.7 |
| LIN7B (lin-7 cell polarity scaffold B) | SID160747507 | -0.288 | 76.2 | -0.329 | 92.8 |
| LIN7B (lin-7 cell polarity scaffold B) | SID160747508 | 1.37 | 109 | 0.706 | 101 |
| LIN7B (lin-7 cell polarity scaffold B) | SID160747509 | -0.341 | 75.1 | -0.778 | 103 |
| MRPL36 (mitochondrial ribosomal protein L36) | SID160748188 | 2.03 | 122 | 2.29 | 74.7 |
| MRPL36 (mitochondrial ribosomal protein L36) | SID160748190 | -0.138 | 79.1 | -0.382 | 97.8 |
| MRPL36 (mitochondrial ribosomal protein L36) | SID160748191 | 0.738 | 96.6 | 1.12 | 80.3 |
| IFT22 (intraflagellar transport 22) | SID160734053 | -1.16 | 58.7 | 0.304 | 60.6 |
| IFT22 (intraflagellar transport 22) | SID160747997 | 1.73 | 116 | 0.885 | 103 |
| IFT22 (intraflagellar transport 22) | SID160747998 | -1.06 | 60.8 | -0.178 | 71.2 |
| MYL12A (myosin light chain 12A) | SID160728895 | -0.801 | 66 | -0.589 | 86.1 |
| MYL12A (myosin light chain 12A) | SID160728896 | -0.704 | 67.9 | -0.544 | 87.5 |
| MYL12A (myosin light chain 12A) | SID160728897 | -0.94 | 63.2 | -0.992 | 91.7 |
| DUSP14 (dual specificity phosphatase 14) | SID160729879 | -0.834 | 65.3 | -0.472 | 82.6 |
| DUSP14 (dual specificity phosphatase 14) | SID160729880 | -0.454 | 72.9 | -0.796 | 100 |
| DUSP14 (dual specificity phosphatase 14) | SID160729881 | 0.146 | 84.8 | -0.525 | 109 |
| NOM1 (nucleolar protein with MIF4G domain 1) | SID160731728 | -0.822 | 65.5 | -0.374 | 80.8 |
| NOM1 (nucleolar protein with MIF4G domain 1) | SID160747798 | -0.37 | 74.5 | 0.273 | 77.5 |
| NOM1 (nucleolar protein with MIF4G domain 1) | SID160747799 | -0.297 | 76 | -0.555 | 98.3 |
| SELENOO (selenoprotein O) | SID160731994 | 4.72 (active) | 176 | 3.52 | 77.8 |
| SELENOO (selenoprotein O) | SID160751269 | 0.6 | 93.8 | -0.037 | 106 |
| SELENOO (selenoprotein O) | SID160751270 | -0.617 | 69.6 | -0.843 | 97.1 |

Entries listed above marked active (1):
| gene knocked down | PubChem SID | total luciferase, z-score | total luciferase, % of control | luciferase per cell, z-score | viable cells, % of control |
| --- | --- | --- | --- | --- | --- |
| SELENOO (selenoprotein O) | SID160731994 | 4.72 (active) | 176 | 3.52 | 77.8 |
